Laboratory results: PubChem BioAssay AID493246 (Drosophila RNAi Screening Center, 2011)

Test: 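Genome-wide search for dsRNAs that reduce cell number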 (primary screen)
Cells: Drosophila Kc and S2R+ cells
Reagent: long dsRNA against Drosophila genes
Detection: 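Cell number per well after knock-down, printed as raw plate values; calls were based on per-plate z-scores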
Reading the numbers: Kc cell number and S2R+ cell number: higher = more cells remaining
Active means: 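Counted as a hit if cell number falls by a z-score of at least 3 within its plate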
In all, the deposit lists about 21,000 reagents; this is a random part of those that have a named target and a result. In the full data, 429 (2%) got an active call. 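Values are raw and not normalised between plates; calls rest on per-plate z-scores that were not deposited.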 Not stated in the record: the amount of reagent, the time to read-out.

Ndc1 [DRSC15895] | Kc cell number, rep 1: 1.40e6; Kc cell number, rep 2: 1.52e6; S2R+ cell number, rep 1: 1.21e6; S2R+ cell number, rep 2: 1.35e6; Call: inactive
CG15544 [DRSC15082] | Kc cell number, rep 1: 1.44e6; Kc cell number, rep 2: 1.53e6; S2R+ cell number, rep 1: 1.04e6; S2R+ cell number, rep 2: 1.17e6; Call: inactive
CG14566 [DRSC11727] | Kc cell number, rep 1: 1.32e6; Kc cell number, rep 2: 1.42e6; S2R+ cell number, rep 1: 1.26e6; S2R+ cell number, rep 2: 1.35e6; Call: inactive
CG5348 [DRSC06933] | Kc cell number, rep 1: 1.59e6; Kc cell number, rep 2: 1.59e6; S2R+ cell number, rep 1: 1.22e6; S2R+ cell number, rep 2: 1.39e6; Call: inactive
REG [DRSC20273] | Kc cell number, rep 1: 1.47e6; Kc cell number, rep 2: 1.46e6; S2R+ cell number, rep 1: 1.02e6; S2R+ cell number, rep 2: 1.09e6; Call: inactive
CG16717 [DRSC10221] | Kc cell number, rep 1: 1.48e6; Kc cell number, rep 2: 1.67e6; S2R+ cell number, rep 1: 1.41e6; S2R+ cell number, rep 2: 1.57e6; Call: inactive
CG17404 [DRSC15234] | Kc cell number, rep 1: 1.72e6; Kc cell number, rep 2: 1.78e6; S2R+ cell number, rep 1: 1.20e6; S2R+ cell number, rep 2: 1.31e6; Call: inactive
CG17163 [DRSC20901] | Kc cell number, rep 1: 1.79e6; Kc cell number, rep 2: 1.79e6; S2R+ cell number, rep 1: 1.19e6; S2R+ cell number, rep 2: 1.37e6; Call: inactive
CG14480 [DRSC06452] | Kc cell number, rep 1: 1.50e6; Kc cell number, rep 2: 1.56e6; S2R+ cell number, rep 1: 1.23e6; S2R+ cell number, rep 2: 1.29e6; Call: inactive
red [DRSC14477] | Kc cell number, rep 1: 1.48e6; Kc cell number, rep 2: 1.55e6; S2R+ cell number, rep 1: 7.06e5; S2R+ cell number, rep 2: 7.81e5; Call: active
CG17065 [DRSC20544] | Kc cell number, rep 1: 1.57e6; Kc cell number, rep 2: 1.64e6; S2R+ cell number, rep 1: 1.10e6; S2R+ cell number, rep 2: 1.23e6; Call: inactive
CG42366 [DRSC02760] | Kc cell number, rep 1: 1.43e6; Kc cell number, rep 2: 1.49e6; S2R+ cell number, rep 1: 1.15e6; S2R+ cell number, rep 2: 1.35e6; Call: inactive
Muc68Ca [DRSC10313] | Kc cell number, rep 1: 1.29e6; Kc cell number, rep 2: 1.64e6; S2R+ cell number, rep 1: 1.18e6; S2R+ cell number, rep 2: 1.30e6; Call: inactive
exu [DRSC07615] | Kc cell number, rep 1: 1.25e6; Kc cell number, rep 2: 1.29e6; S2R+ cell number, rep 1: 1.14e6; S2R+ cell number, rep 2: 1.21e6; Call: inactive
CG13005 [DRSC19524] | Kc cell number, rep 1: 1.43e6; Kc cell number, rep 2: 1.44e6; S2R+ cell number, rep 1: 1.05e6; S2R+ cell number, rep 2: 1.17e6; Call: inactive
CG15200 [DRSC19647] | Kc cell number, rep 1: 1.58e6; Kc cell number, rep 2: 1.50e6; S2R+ cell number, rep 1: 1.08e6; S2R+ cell number, rep 2: 1.15e6; Call: inactive
Nepl14 [DRSC15631] | Kc cell number, rep 1: 1.49e6; Kc cell number, rep 2: 1.47e6; S2R+ cell number, rep 1: 9.77e5; S2R+ cell number, rep 2: 1.04e6; Call: inactive
CG8526 [DRSC16438] | Kc cell number, rep 1: 1.62e6; Kc cell number, rep 2: 1.80e6; S2R+ cell number, rep 1: 1.42e6; S2R+ cell number, rep 2: 1.58e6; Call: inactive
CG18628 [DRSC10328] | Kc cell number, rep 1: 1.54e6; Kc cell number, rep 2: 1.75e6; S2R+ cell number, rep 1: 1.23e6; S2R+ cell number, rep 2: 1.27e6; Call: inactive
mRNA-cap [DRSC19789] | Kc cell number, rep 1: 1.62e6; Kc cell number, rep 2: 1.68e6; S2R+ cell number, rep 1: 8.67e5; S2R+ cell number, rep 2: 9.53e5; Call: inactive
CG11808 [DRSC06088] | Kc cell number, rep 1: 1.27e6; Kc cell number, rep 2: 1.44e6; S2R+ cell number, rep 1: 8.92e5; S2R+ cell number, rep 2: 9.34e5; Call: inactive

In a second layout: results already given.
{"Gene": "Muc68Ca", "dsRNA": "DRSC10313", "Kc cell number, rep 1": 1.29e6, "Kc cell number, rep 2": 1.64e6, "S2R+ cell number, rep 1": 1.18e6, "S2R+ cell number, rep 2": 1.30e6, "Call": "inactive"}
{"Gene": "exu", "dsRNA": "DRSC07615", "Kc cell number, rep 1": 1.25e6, "Kc cell number, rep 2": 1.29e6, "S2R+ cell number, rep 1": 1.14e6, "S2R+ cell number, rep 2": 1.21e6, "Call": "inactive"}
